PubChem BioAssay AID686938, Drosophila RNAi Screening Center | 2013
The screen tested about 23,000 reagents; shown is an unselected part of those with a known target gene and a result. Of all reagents, 75 (0.33%) are marked active. 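Raw plate signals without normalisation; calls rest on plate z-scores that were not deposited; ratio present for only 364 wells.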 A number with no mark means an inactive call. Not stated in the record: the dose of the treatment.

Screen: 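Knock-downs reducing store-operated calcium influx in Drosophila cells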 (primary screen)
Cells: Drosophila S2R+ cells
Knock-down reagent: long dsRNA against Drosophila genes, about 0.25 µg dsRNA per well, roughly 10,000 cells
Duration: 5 days of knock-down before the calcium assay
Conditions: thapsigargin (SERCA pump blocker) to empty calcium stores; entry signal taken 4 min after adding it
Read-out: 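Per-well fluo-4 fluorescence in two replicates, unnormalised, measured in resting cells and 4 min after store depletion by the SERCA blocker thapsigargin; ratio of the two present in few wells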
Reading the numbers: calcium entry signal: higher = stronger calcium signal after store depletion; resting calcium signal: higher = higher resting calcium signal
Units: calcium entry signal in fluorescence units; resting calcium signal in fluorescence units
Active means: 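Hit if the duplicate-averaged plate z-score for entry over resting signal is under −3; wells with weak total dye signal (Fmax z < −2) or more than 5 off-targets removed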
Meaning of the calls: active = strongly reduced calcium entry; inactive = no strong reduction

Erk7 (GeneID 31877) [DRSC18127]
- calcium entry signal, replicate 1: 3.51e7
- calcium entry signal, replicate 2: 5.68e7
- resting calcium signal, replicate 1: 1.71e7
- resting calcium signal, replicate 2: 2.42e7

Erk7 (GeneID 31877) [DRSC18227]
- calcium entry signal, replicate 1: 3.76e7
- calcium entry signal, replicate 2: 4.89e7
- resting calcium signal, replicate 1: 1.78e7
- resting calcium signal, replicate 2: 2.42e7

Erk7 (GeneID 31877) [DRSC21895]
- calcium entry signal, replicate 1: 3.45e7
- calcium entry signal, replicate 2: 5.79e7
- resting calcium signal, replicate 1: 1.62e7
- resting calcium signal, replicate 2: 2.70e7

stil (GeneID 36380) [DRSC07699]
- calcium entry signal, replicate 1: 3.57e7
- calcium entry signal, replicate 2: 4.90e7
- resting calcium signal, replicate 1: 1.55e7
- resting calcium signal, replicate 2: 2.09e7

Swim (GeneID 37537) [DRSC04334]
- calcium entry signal, replicate 1: 3.45e7
- resting calcium signal, replicate 1: 1.75e7

CG16952 (GeneID 32546) [DRSC19759]
- calcium entry signal, replicate 1: 2.96e7
- calcium entry signal, replicate 2: 3.23e7
- resting calcium signal, replicate 1: 1.60e7
- resting calcium signal, replicate 2: 1.64e7

phr6-4 (GeneID 35322) [DRSC03589]
- calcium entry signal, replicate 1: 3.84e7
- calcium entry signal, replicate 2: 4.58e7
- resting calcium signal, replicate 1: 1.53e7
- resting calcium signal, replicate 2: 1.73e7

CG33493 (GeneID 2768994) [DRSC10642]
- calcium entry signal, replicate 1: 2.46e7
- calcium entry signal, replicate 2: 2.97e7
- resting calcium signal, replicate 1: 1.26e7
- resting calcium signal, replicate 2: 1.31e7

Continued; the last 2 above are carried over.
phr6-4 (GeneID 35322) [DRSC03589]
- calcium entry signal, replicate 1: 3.84e7
- calcium entry signal, replicate 2: 4.58e7
- resting calcium signal, replicate 1: 1.53e7
- resting calcium signal, replicate 2: 1.73e7

CG33493 (GeneID 2768994) [DRSC10642]
- calcium entry signal, replicate 1: 2.46e7
- calcium entry signal, replicate 2: 2.97e7
- resting calcium signal, replicate 1: 1.26e7
- resting calcium signal, replicate 2: 1.31e7

CG11699 (GeneID 32101) [DRSC19419]
- calcium entry signal, replicate 1: 3.69e7
- calcium entry signal, replicate 2: 4.09e7
- resting calcium signal, replicate 1: 1.89e7
- resting calcium signal, replicate 2: 2.05e7

CG10513 (GeneID 43051) [DRSC14248]
- calcium entry signal, replicate 1: 3.49e7
- calcium entry signal, replicate 2: 3.37e7
- resting calcium signal, replicate 1: 1.56e7
- resting calcium signal, replicate 2: 1.62e7

cnn (GeneID 36491) [DRSC05422]
- calcium entry signal, replicate 1: 4.05e7
- calcium entry signal, replicate 2: 4.43e7
- resting calcium signal, replicate 1: 1.90e7
- resting calcium signal, replicate 2: 1.87e7

cnn (GeneID 36491) [DRSC07596]
- calcium entry signal, replicate 1: 3.48e7
- calcium entry signal, replicate 2: 3.43e7
- resting calcium signal, replicate 1: 1.77e7
- resting calcium signal, replicate 2: 1.63e7

CG1635 (GeneID 43720) [DRSC15131]
- calcium entry signal, replicate 1: 3.34e7
- calcium entry signal, replicate 2: 3.91e7
- resting calcium signal, replicate 1: 1.59e7
- resting calcium signal, replicate 2: 1.93e7

CG43234 (retired record) (GeneID 12798025) [DRSC01786]
- calcium entry signal, replicate 1: 3.29e7
- calcium entry signal, replicate 2: 6.69e7
- resting calcium signal, replicate 1: 1.50e7
- resting calcium signal, replicate 2: 2.51e7
